Data: PMC4689063
No constants are given. Whether binding was seen depends on the method and setting. In cells and extracts the contact can be indirect. Some entries that bind do so weakly or less than the wild type.

Sequences of proteins named here, by UniProt entry; tags and fusion partners are left off. Residues count along the entry.
UniProt G3H953: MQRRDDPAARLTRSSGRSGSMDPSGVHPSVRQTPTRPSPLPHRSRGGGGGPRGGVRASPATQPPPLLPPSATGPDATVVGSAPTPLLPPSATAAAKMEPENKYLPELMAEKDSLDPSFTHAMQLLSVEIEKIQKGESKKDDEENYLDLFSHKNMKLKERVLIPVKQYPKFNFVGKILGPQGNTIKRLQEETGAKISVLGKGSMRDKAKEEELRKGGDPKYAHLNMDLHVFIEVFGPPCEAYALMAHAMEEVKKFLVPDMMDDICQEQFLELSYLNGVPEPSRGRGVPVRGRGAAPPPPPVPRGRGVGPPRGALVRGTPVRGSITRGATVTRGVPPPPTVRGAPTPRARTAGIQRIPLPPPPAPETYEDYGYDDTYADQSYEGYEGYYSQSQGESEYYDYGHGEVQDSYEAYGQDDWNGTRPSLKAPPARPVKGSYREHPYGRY
UniProt P03309, residues 1864-2333: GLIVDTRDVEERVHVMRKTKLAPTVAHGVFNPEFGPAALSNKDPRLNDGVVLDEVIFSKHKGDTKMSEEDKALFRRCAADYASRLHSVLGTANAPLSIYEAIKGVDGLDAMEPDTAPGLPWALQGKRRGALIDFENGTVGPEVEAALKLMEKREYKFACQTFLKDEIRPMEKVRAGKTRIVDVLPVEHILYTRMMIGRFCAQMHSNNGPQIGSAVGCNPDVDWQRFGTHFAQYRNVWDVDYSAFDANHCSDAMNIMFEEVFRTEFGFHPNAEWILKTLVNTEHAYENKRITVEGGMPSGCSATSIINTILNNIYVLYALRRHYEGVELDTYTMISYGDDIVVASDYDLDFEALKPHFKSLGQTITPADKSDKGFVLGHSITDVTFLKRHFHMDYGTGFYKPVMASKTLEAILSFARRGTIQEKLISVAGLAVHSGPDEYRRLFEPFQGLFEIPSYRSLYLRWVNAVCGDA

What was measured:
[1] = target: Src-associated protein of 68 kDa in mitosis (Sam68), endogenous in BHK-21 cells (hamster (endogenous in BHK-21)) (UniProt G3H953); test: co-IP
[2] = target: FMDV RNA-dependent RNA polymerase 3D^pol, from infected BHK-21 cells (foot-and-mouth disease virus (type A24 Cruzeiro)) (UniProt P03309); test: co-IP

Row | Substance | binding [1] | binding [2]
1 | FMDV RNA-dependent RNA polymerase 3D^pol, from infected BHK-21 cells (from UniProt P03309) (enzyme) | binds | –
2 | Src-associated protein of 68 kDa in mitosis (Sam68), endogenous in BHK-21 cells (from UniProt G3H953 1-443) | – | binds
